Earlier results as cited in patent US20210268080A1, “IMMUNE STIMULATING COMPOSITIONS FOR THE TREATMENT AND REVENTION OF INFECTIONS WITH INTRACELLULAR PATHOGENS” (priority 2018, published 2021).
Some entries share one result that the patent states for a list of compounds.

Test system: Trypanosoma cruzi
Conditions: skin disorders, brain toxicity, digestive system irritation

In the case of `O=C(Cn1ccnc1[N+](=O)[O-])NCc1ccccc1` [benznidazole], the “people with temporary side effects” value is given as “up to 40%”.
